Paper PMC4960556

Amino acid sequences for entries named in this document (tags omitted). A change or cut given only in a name is not applied to a line headed by its entry.
UniProt Q04609: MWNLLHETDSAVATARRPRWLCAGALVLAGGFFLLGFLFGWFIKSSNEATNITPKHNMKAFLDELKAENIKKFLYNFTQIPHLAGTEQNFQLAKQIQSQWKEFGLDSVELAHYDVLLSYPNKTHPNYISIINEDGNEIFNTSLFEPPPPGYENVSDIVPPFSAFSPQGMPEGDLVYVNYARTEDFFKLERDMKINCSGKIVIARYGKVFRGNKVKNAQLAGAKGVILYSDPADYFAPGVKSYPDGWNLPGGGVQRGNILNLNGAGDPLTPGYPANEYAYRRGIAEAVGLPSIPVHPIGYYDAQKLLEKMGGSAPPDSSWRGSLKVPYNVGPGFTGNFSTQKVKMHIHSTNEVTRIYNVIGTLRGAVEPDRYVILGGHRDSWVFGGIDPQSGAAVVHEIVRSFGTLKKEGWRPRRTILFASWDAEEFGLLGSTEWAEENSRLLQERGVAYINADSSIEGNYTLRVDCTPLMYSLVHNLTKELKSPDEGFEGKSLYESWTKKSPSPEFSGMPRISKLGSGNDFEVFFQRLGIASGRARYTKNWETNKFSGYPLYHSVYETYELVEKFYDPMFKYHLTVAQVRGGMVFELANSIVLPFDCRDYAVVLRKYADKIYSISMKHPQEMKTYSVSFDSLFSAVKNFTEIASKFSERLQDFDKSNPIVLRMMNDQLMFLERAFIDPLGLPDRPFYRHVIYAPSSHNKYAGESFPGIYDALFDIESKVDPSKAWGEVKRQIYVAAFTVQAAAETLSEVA

How the values were obtained:
[1] = biological target: prostate-specific membrane antigen (PSMA) (UniProt Q04609); test: flow cytometry and confocal microscopy on cells; settings: non-targeting control, signal treated as nonspecific background, PSEP about 7-fold higher in confocal; 2'-F pyrimidines; Flow binding: 50 nM Cy3-RNA on trypsinized, PBS-washed cells, 300 ug/ml yeast tRNA, 30 min, 37 C; protein on the cell surface; label: Cy3-CTP incorporated in strand 1 (RNA10); letters put together from the description
[2] = biological target: prostate-specific membrane antigen (PSMA) (UniProt Q04609); test: flow cytometry on cells; settings: 50 nM PSEP, C4-2 cells, staining reduced on PSMA knockdown, no binding to PSMA-negative PC3, BXPC3, T-24; 2'-F pyrimidines; Flow binding: 50 nM Cy3-RNA on trypsinized, PBS-washed cells, 300 ug/ml yeast tRNA, 30 min, 37 C; protein on the cell surface; label: Cy3-CTP incorporated in strand 1 (RNA1)

Sequence | binding result [1] | binding result [2]
GGAUCCCGACUGGCGAGAGCCAGGUAACGAAUGGAUCCUUUUGUAGAGAUGCGGUGGUCCUU / GGAUCCCGACUGGCGAGAGCCAGGUAACGAAUGGAUCCAAAAACCUUAGCAGUCUUAUCUAAUUUUGGACCACCGCAUCUCUACAUU / UUAGAUAAGACUGCUAAGGCA [MSEM (two MG aptamers, non-targeting control)] | no binding | 
GGGAGGACGAUGCGGAUCAGCCAUGUUUACGUCACUCCUAAAAUGUAGAGAUGCGGUGGUCCUU / GGGAGGACGAUGCGGAUCAGCCAUGUUUACGUCACUCCUAAAACCUUAGCAGUCUUAUCUAAUUUUGGACCACCGCAUCUCUACAUU / UUAGAUAAGACUGCUAAGGCA |  | binds

Construct, isoform or probe ends are uncertain for at least one entry. Results from cells or extracts need not show a direct contact. For some assays here: A negative result means that nothing was seen under these conditions. For some assays here: At least one verdict was read from the data and is not stated in words by the source.
